Results published in PubChem BioAssay AID330 (DTP/NCI, 2004).
The list is a part of this screen's results and no random one: it is rich in T/C values a quarter to a half above the control, in often repeated tests (any T/C) and in doses without a T/C. Further doses and runs are listed elsewhere. T/C is the treated group as % of the vehicle group. Some entries give survivors of the animals treated and no T/C: the source files T/C as zero there, which appears to mark a toxic dose or a test without result, not a measured value. Some doses without a T/C left all or most animals alive at the check, yet need not have been tolerated: the source hardly ever lists a survival T/C far under the control, and the zero likely stands for such cases as well. Survivors were counted at the toxicity check, usually on the fifth day, unless a day is given; later deaths do not show. Schedule codes are those of the source, read here as Q, the interval in days (D) or hours (H), X, the number of doses. Some doses were run more than once; the values are given in rising order. For survival time, the PubChem record calls one and a half times the control and up active, and a quarter to a half above the control has no call in these data; cut-offs in other NCI protocols can differ. Some T/C values carry the count of animals alive at the toxicity check (mostly the fifth day); where none is given, no animal had died by that day.

Test system: P388 leukemia ip, CD2F1 mice, survival T/C
Test: NCI In Vivo Anticancer Drug Screen. Data for tumor model P388 Leukemia (intraperitoneal) in CD2F1 (CDF1) mice
Conditions: T/C endpoint: median survival time, higher T/C = longer survival
[1] = dose: 200.0 mg/kg/injection, schedule: Q01DX009 (ip), vehicle: saline with Tween-80
[2] = dose: 200.0 mg/kg/injection, schedule: Q01DX005 (ip), vehicle: saline with Tween-80
[3] = dose: 240.0 mg/kg/injection, schedule: Q01DX005 (ip), vehicle: saline with Tween-80
[4] = dose: 12.5 mg/kg/injection, schedule: Q01DX009 (ip), vehicle: saline with Tween-80
[5] = dose: 25.0 mg/kg/injection, schedule: Q01DX009 (ip), vehicle: saline with Tween-80
[6] = dose: 50.0 mg/kg/injection, schedule: Q01DX009 (ip), vehicle: saline with Tween-80
[7] = dose: 240.0 mg/kg/injection, schedule: Q01DX005 (ip), vehicle: Klucel (hydroxypropylcellulose) (HPC)
[8] = dose: 200.0 mg/kg/injection, schedule: Q04DX003 (ip), vehicle: saline with Tween-80
[9] = dose: 400.0 mg/kg/injection, schedule: Q04DX003 (ip), vehicle: saline with Tween-80

## CC(C)C([N+](C)(C)C)P(=O)([O-])O (stereo unspecified)
dose: 400.0 mg/kg/injection, schedule: Q01DX009 (ip), vehicle: saline with Tween-80
  survivor count: 6 of 6

## C[CH2][Sn]1([CH2]C)[c]2ccccc2Oc2cccc[c]21
[1]
  survivor count: 0 of 6

## Nc1ncnc2c1ncn2C1C=C(CO)C(O)C1O (stereo unspecified)
dose: 0.5 mg/kg/injection, schedule: Q01DX009 (ip), vehicle: Klucel (hydroxypropylcellulose) (HPC)
  T/C: 132 and 133 % of control
dose: 0.5 mg/kg/injection, schedule: Q01DX009 (ip), vehicle: saline
  T/C: 143 and 147 % of control
dose: 1.0 mg/kg/injection, schedule: Q01DX009 (ip), vehicle: Klucel (hydroxypropylcellulose) (HPC)
  T/C: 129 and 133 % of control
dose: 1.0 mg/kg/injection, schedule: Q01DX009 (ip), vehicle: saline
  T/C: 142 % of control
dose: 2.0 mg/kg/injection, schedule: Q01DX009 (ip), vehicle: Klucel (hydroxypropylcellulose) (HPC)
  T/C: 127 and 135 % of control
dose: 2.0 mg/kg/injection, schedule: Q01DX009 (ip), vehicle: saline
  T/C: 144 % of control
dose: 4.0 mg/kg/injection, schedule: Q01DX009 (ip), vehicle: saline
  T/C: 135 % of control
dose: 16.0 mg/kg/injection, schedule: Q01DX009 (ip), vehicle: Klucel (hydroxypropylcellulose) (HPC)
  survivor count: 3 of 6
dose: 16.0 mg/kg/injection, schedule: Q01DX009 (ip), vehicle: saline
  survivor count: 0 of 6

## C/C(=N/NC(=S)N1CC2CCC(CC2)C1)c1cnccn1
dose: 25.0 mg/kg/injection, schedule: Q01DX005 (ip), vehicle: saline with Tween-80
  survivor count: 5 of 5
dose: 50.0 mg/kg/injection, schedule: Q01DX005 (ip), vehicle: saline with Tween-80
  survivor count: 4 of 5
dose: 100.0 mg/kg/injection, schedule: Q01DX005 (ip), vehicle: saline with Tween-80
  survivor count: 0 of 5
[2]
  survivor count: 0 of 5

## C=C1[C@H]2C[C@H]2[C@]2(C)C[C@@H]3OC(=O)C(C)=C3C[C@@H]12
dose: 19.5 mg/kg/injection, schedule: Q01DX005 (ip), vehicle: Klucel (hydroxypropylcellulose) (HPC)
  survivor count: 6 of 6

## CCN(CC)CCNC(=O)c1ccc(NCN2C(=O)NC(c3ccccc3)(c3ccccc3)C2=O)cc1
[3]
  survivor count: 5 of 6

## COc1cc2c(cc1OC)C1c3cc(OC)c(OC)cc3CCN1CC2
dose: 50.0 mg/kg/injection, schedule: Q01DX009 (ip), vehicle: water
  survivor count: 0 of 6

## Cc1c(-c2ccccc2)ccnc1/C=N/NC(=S)NCCc1ccccc1
[4]
  T/C: 130 % of control [5 of 6 alive]
[5]
  T/C: 131 % of control
[6]
  T/C: 141 and 144 % of control
[1]
  survivor count: 4 of 6

## CC(=O)Nc1ccc(N=NN(C)Cc2ccccc2)cc1
dose: 25.0 mg/kg/injection, schedule: Q01DX001 (ip), vehicle: Klucel (hydroxypropylcellulose) (HPC)
  T/C: 127 % of control
dose: 50.0 mg/kg/injection, schedule: Q01DX001 (ip), vehicle: Klucel (hydroxypropylcellulose) (HPC)
  survivor count: 2 of 6
dose: 100.0 mg/kg/injection, schedule: Q01DX001 (ip), vehicle: Klucel (hydroxypropylcellulose) (HPC)
  survivor count: 2 of 6 and 3 of 6

## CCOC(=O)NCCCCCCNC(=O)OCC
dose: 400.0 mg/kg/injection, schedule: Q01DX005 (ip), vehicle: Klucel (hydroxypropylcellulose) (HPC)
  survivor count: 0 of 6 and 4 of 6

## COc1ccc(CCNC2(C#N)CCCCC2)cc1OC
dose: 200.0 mg/kg/injection, schedule: Q01DX009 (ip), vehicle: Klucel (hydroxypropylcellulose) (HPC)
  survivor count: 0 of 6

## CC[C@@]1(O)C[C@H]2CN(CCc3c([nH]c4ccccc34)[C@@](C(=O)OC)(c3cc4c(cc3OC)N[C@H]3[C@@](O)(C(=O)OC)[C@H](OC(C)=O)[C@]5(CC)C=CCN6CC[C@]43[C@@H]65)C2)C1
dose: 0.5 mg/kg/injection, schedule: Q01DX001 (ip), vehicle: water
  T/C: 125 % of control
dose: 1.0 mg/kg/injection, schedule: Q01DX001 (ip), vehicle: water
  T/C: 126 and 136 % of control
dose: 2.0 mg/kg/injection, schedule: Q01DX001 (ip), vehicle: water
  T/C: 136 and 138 % of control
dose: 4.0 mg/kg/injection, schedule: Q01DX001 (ip), vehicle: water
  T/C: 138 and 143 % of control
dose: 32.0 mg/kg/injection, schedule: Q01DX001 (ip), vehicle: water
  survivor count: 3 of 6

## CC1(C)CC(NC2CCCCC2)=CC(=NC2CCCCC2)N1
dose: 12.5 mg/kg/injection, schedule: Q01DX005 (ip), vehicle: Klucel (hydroxypropylcellulose) (HPC)
  survivor count: 6 of 6
dose: 50.0 mg/kg/injection, schedule: Q01DX005 (ip), vehicle: Klucel (hydroxypropylcellulose) (HPC)
  survivor count: 3 of 6
dose: 100.0 mg/kg/injection, schedule: Q01DX005 (ip), vehicle: Klucel (hydroxypropylcellulose) (HPC)
  survivor count: 2 of 6
dose: 200.0 mg/kg/injection, schedule: Q01DX005 (ip), vehicle: Klucel (hydroxypropylcellulose) (HPC)
  survivor count: 0 of 6

## Cc1ccc(S(=O)(=O)/C=C/CCl)cc1
[2]
  survivor count: 1 of 5

## CCCCOC(=O)C1(N)CCCC1
dose: 400.0 mg/kg/injection, schedule: Q04DX003 (ip), vehicle: saline
  survivor count: 4 of 6

## Cc1cc(OC(=O)Nc2ccc(C(C)C)cc2)c(C)cc1Br
dose: 50.0 mg/kg/injection, schedule: Q01DX009 (ip), vehicle: saline + alcohol
  survivor count: 6 of 6

## C[N+](C)=c1ccc2nc3ccc(N)cc3sc-2c1
dose: 3.13 mg/kg/injection, schedule: Q01DX009 (ip), vehicle: saline with Tween-80
  survivor count: 6 of 6
dose: 100.0 mg/kg/injection, schedule: Q01DX009 (ip), vehicle: saline
  survivor count: 1 of 6
dose: 200.0 mg/kg/injection, schedule: Q01DX009 (ip), vehicle: saline
  survivor count: 0 of 6

## CCN(CCO)CCNc1ccc(C)c2sc3cc(OC)ccc3c(=O)c12
[2]
  T/C: 125 % of control
dose: 400.0 mg/kg/injection, schedule: Q01DX005 (ip), vehicle: saline with Tween-80
  survivor count: 4 of 6

## Oc1ccccc1N=Cc1cccs1
dose: 400.0 mg/kg/injection, schedule: Q01DX009 (ip), vehicle: Klucel (hydroxypropylcellulose) (HPC)
  T/C: 127 % of control [5 of 6 alive]

## Nc1nc(N)c(CCCOc2ccc(C(=O)O)cc2)c(N)n1
[7]
  survivor count: 3 of 6

## O=C1C=C(N2CC2)c2ccccc2C1=O
dose: 18.7 mg/kg/injection, schedule: Q01DX009 (ip), vehicle: saline with Tween-80
  T/C: 131 % of control
[5]
  survivor count: 5 of 6
dose: 25.0 mg/kg/injection, schedule: Q04DX003 (ip), vehicle: saline with Tween-80
  T/C: 140 % of control
dose: 100.0 mg/kg/injection, schedule: Q04DX003 (ip), vehicle: saline with Tween-80
  survivor count: 0 of 6
[8]
  survivor count: 0 of 6
[9]
  survivor count: 0 of 6

## CN(C)CCC(=O)C(=Cc1ccc(Cl)c(Cl)c1)C(=O)CCN(C)C
dose: 200.0 mg/kg/injection, schedule: Q01DX005 (ip), vehicle: saline
  survivor count: 1 of 5
dose: 400.0 mg/kg/injection, schedule: Q01DX005 (ip), vehicle: saline
  survivor count: 0 of 5

## NC(=S)n1nc(-c2cccs2)c(N=Nc2ccc(Cl)cc2)c1C(F)(F)F
[7]
  survivor count: 6 of 6

## C=C(C)[C@@H]1CCc2c(O)c(O)c(=O)cc(C)c2C1
dose: 14.0 mg/kg/injection, schedule: Q01DX009 (ip), vehicle: saline
  T/C: 127 % of control

## C[n+]1c(/C=N/NC(N)=S)ccc2ccccc21
[6]
  T/C: 125 % of control
[1]
  survivor count: 0 of 6

## C(=C\CN1CCOCC1)/Cc1cccnc1
[4]
  T/C: 131 % of control
dose: 100.0 mg/kg/injection, schedule: Q01DX009 (ip), vehicle: saline with Tween-80
  survivor count: 0 of 6
[1]
  survivor count: 0 of 6

## O=C(c1ccccc1)C(O)O
[8]
  survivor count: 5 of 6
[9]
  survivor count: 1 of 6

## COC1C(N)C(OC2C(Oc3cccc4c(O)c5c(=O)oc6ccc(C)c7c(=O)oc(c34)c5c67)OC(C)C(O)C2(C)O)OC(C)C1O (stereo unspecified)
dose: 10.0 mg/kg/injection, schedule: Q01DX009 (ip), vehicle: other
  survivor count: 4 of 6
dose: 20.0 mg/kg/injection, schedule: Q01DX009 (ip), vehicle: other
  survivor count: 0 of 6

## CCOC(=O)c1c(O)c(C)c(=O)n2c1[nH]c1cc(C)c(C)cc12
[3]
  survivor count: 6 of 6
